# Percent effect of library compounds

Data taken from ChEMBL document CHEMBL3988442, “University of Dundee, Small-Polar-MMV Screening Library” (2021).

The filed quantity is “Percent Effect” (%). The controls that fix the scale are not given in the record; negative values are as filed. This is an unselected part of the compounds tested. Two or more numbers in one place are separate tests of the same structure; such repeats can differ widely. A dash means the value is not listed here; it may have been measured.

A: 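Assay of Toxoplasma gondii numbers, read through their beta-galactosidase reporter with a colour substrate. Tested at 10 µM. Higher reads as fewer parasites (inferred from which compounds were picked for retests). Of about 67,000 compounds tested this way, about 260 (0.38%) reached 50% or more in at least one test.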
B: 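Whole-parasite assay of Trypanosoma brucei over 72 hours; the read-out is not stated. Tested at 30 µM. Higher reads as stronger inhibition (inferred: compounds with an IC50 in retests scored well above the rest). Values scatter widely below zero; nearly all retest evidence comes from the higher of the two concentrations used. Size under these conditions: about 64,000 compounds, about 940 of them at 50% or above in at least one test.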
C: 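Cell assay of Leishmania donovani living inside macrophages; the read-out is not stated. Concentration: 30 µM. The record gives no direction; compounds that gave an IC50 in retests scored well above the rest, so higher reads as stronger inhibition. About 69,000 compounds were tested under these conditions; 1.5% (about 1,000) showed 50% or more at least once.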

compound | A | B | C
CCn1nccc1C(=O)Nc1nc(C)c(C(C)=O)s1 | 17.68 | -2.793 | -1.051
O=C(Cc1cccs1)Nc1cnn(C2CCOC2)c1 (stereo not shown) | -20.94 | -29.39 | 0.6698
CCCSCC(=O)N1CCCC(CO)(CCC)C1 (stereo not shown) | 2.843 | -41.6 | -42.99
CN(CCc1cccs1)CCc1nccs1 | 22.95 | -5.093 | 25.88
CCS(=O)(=O)N1CCOCC2(CCN(c3ccccn3)C2)C1.O=C(O)C(F)(F)F (stereo not shown) | -1.246 | -2.356 | -8.247
COc1ccc(C[C@H]2CNCC[C@@H]2OCC2CC2)cc1 | -11.8 | -9.846 | 9.409
CC(C)c1noc(C(C)N2CCN(Cc3cccs3)CC2)n1 (stereo not shown) | -7.695 | -12.6 | -32.02
CCN(CC)C(=O)[C@@H]1C[C@@H](n2cc(-c3cccc(OC)c3)nn2)CN1 | 2.612 | -2.243 | 6.654
Cc1ccccc1CNC(=O)CN1CCCC(Cc2nccn2C)C1 (stereo not shown) | -14.12 | 2.279 | 42.14
CC(=O)N1CCCC(c2nccnc2Nc2nc(C)cc(C)n2)C1 (stereo not shown) | 13.23 | -14.06 | -14.69
COc1ccccc1C1CNCCN1C(=O)c1ccc(F)cc1 (stereo not shown) | -15.05 | - | -28.39
O=C(O)C(F)(F)F.[H][C@@]12CCN(c3cnccn3)C[C@]1([H])CN(C(=O)c1cnccn1)C2 | -0.379 | -63.11 | 15
CCn1ccnc1CNc1nccc(-c2cn(C)nc2C)n1 | 9.007 | -14.92 | 21.71
c1ccc(N2CCOC(Cc3cccnc3)C2)cc1 (stereo not shown) | -4.453 | -22.95 | -6.541 & -12.41
O=C(C1CCC2(CCN(c3nncs3)CC2)CO1)N1CCCC1.O=C(O)C(F)(F)F (stereo not shown) | 14.59 | -4.804 | 14.06
COCC(NC(=O)c1cc(NC(C)=O)ccc1Cl)c1ccnn1C (stereo not shown) | -9.293 | -10.55 | 7.558
CN(C)C(C(=O)Nc1nccs1)c1c(F)cccc1Cl (stereo not shown) | 12.03 | 16.18 | -8.642
CC(=O)N1CCN([C@@H]2CC[C@@H](NC(=O)c3ccc(C)nc3)[C@H]2O)CC1 | 2.603 | -14.37 | -1.984 & -8.639
Cc1nc(N2CCN(C(=O)c3cccnc3)CC2)cc(-n2cccc2)n1 | 5.155 | -4.152 | 8.107
[H][C@@]12CN(C(=O)NCC)C[C@]1([H])OCC(=O)N2Cc1cccnc1 | 20.97 | -5.048 | 22.82
COc1cccc(CNC(=O)Cn2ccc3c(C)nn(C)c3c2=O)c1 | 4.178 | -1.746 | 20.8
Cc1nc(C)c(C)c(N2CCC(O)(c3ccc(F)cc3)CC2)n1 | -4.506 | -62.93 | 44.26
O=C(O)c1cc(-c2cccnc2)cc(S(=O)(=O)NCc2ccccn2)c1 | 1.644 | - | 26.65
CCCSCC(=O)N1CCN(c2ccc(OC)cc2)CC1C (stereo not shown) | -5.972 | -105 | 16.32
COc1cc(-c2n[nH]c(CCN)n2)cc(OC)c1OC | 29.24 | -7.44 | -12.24
CS(=O)(=O)C1=C(O)C(=O)N(c2ccccc2)C1c1ccccc1 (stereo not shown) | - | - | 8.659
O=C(O)C(F)(F)F.[H][C@@]12CN(CC)C[C@]1(C(=O)N(C)C)CCC21CCN(S(=O)(=O)CC)CC1 | 5.302 | - | -74.19
COCC(=O)Nc1ccccc1Sc1c(C)n[nH]c1C | -14.23 | -11.86 | -2.902
CC(C)c1nn(C)cc1CNCc1cccnc1N(C)C.Cl | 6.655 | -46.74 | 14.65
CC(C)CN(CC(O)c1ccccc1)C(=O)Nc1nccs1 (stereo not shown) | 5.831 | -11.51 | -2.19
COCCN(C)C[C@@H]1CN(C(=O)c2ccc(OC)c(F)c2)C[C@@H]1CO | 28.21 | -7.793 | 13.22
[H][C@]12CCN(c3ncccc3C)C[C@]1(COC)CC[C@@H](N1CCOCC1)C2 | -10.12 | -4.564 | 25.83
CCCc1ncc(CNC2(c3ccc(Cl)cc3)CCC2)cn1 | -4.169 | -21.44 | 17.31 & 30.59
CS(=O)(=O)c1cccc(C(N)c2ccc(F)c(F)c2)c1.Cl (stereo not shown) | 9.034 | -6.387 | 13.67
CN(C)c1ccc(-c2cc(=O)n3c(n2)CCCCC3)cc1 | - | -31.73 | -15.99
Cc1cc(NC(=O)N2CCCC(O)C2)nn1-c1ccccc1Cl (stereo not shown) | 0.9831 | -11.56 | 0.3664
CCOCCN1CCN(Cc2nnc(C3CC3)o2)CC1CC (stereo not shown) | 1.533 | -71.06 | 39.02
O=C(O)C(F)(F)F.O=C(c1cnccn1)N1CCCC2(CCN(Cc3ccsc3)C2)C1 (stereo not shown) | 2.366 | -8.2 | -5.931
CCN(CC)S(=O)(=O)N(Cc1ccccn1)Cc1ccccc1C | -7.442 | 14.48 | -0.2395
CCc1noc(CS(=O)(=O)CC=C(C)C)n1 | 2.537 | 0.1407 | 11.51
CC(C(=O)Nc1ccc(N2CCCC2)nc1)n1ccnc1 (stereo not shown) | 9.707 | 16.59 | 40.71
CC(C)(C)n1ncc2c(=O)n(CC(=O)NCCc3ccccc3)cnc21 | -3.475 | -0.9972 | 1.947 & 23.99
Cn1cc(-c2ccc(C3CCCCN3Cc3cccnc3)cn2)cn1 (stereo not shown) | 21.78 | 3.351 | -14.6
Cn1ncnc1CCNC(=O)c1cc(Cl)c(Cl)n1C | 13.67 | -18.55 | 3.617
CC(C)(C)c1nc(CC(=O)Nc2cnccc2O)cs1 | 0.3442 | 0.6902 | 5.998
CNC(=O)c1cc2c(nc1NCC(C)C)CCN(S(=O)(=O)N(C)C)CC2 | 3.765 | 37.64 | -1.278